Data taken from PMC9018728.
No constants are given. Whether binding was seen depends on the method and setting. In cells and extracts the contact can be indirect. Some results given as binding are weak or reduced against the parent protein; the word gives no strength. Tags and fused reporters may be left off the sequences shown.

By UniProt entry, the sequences of proteins in these tests, tags left out.
UniProt Q92754: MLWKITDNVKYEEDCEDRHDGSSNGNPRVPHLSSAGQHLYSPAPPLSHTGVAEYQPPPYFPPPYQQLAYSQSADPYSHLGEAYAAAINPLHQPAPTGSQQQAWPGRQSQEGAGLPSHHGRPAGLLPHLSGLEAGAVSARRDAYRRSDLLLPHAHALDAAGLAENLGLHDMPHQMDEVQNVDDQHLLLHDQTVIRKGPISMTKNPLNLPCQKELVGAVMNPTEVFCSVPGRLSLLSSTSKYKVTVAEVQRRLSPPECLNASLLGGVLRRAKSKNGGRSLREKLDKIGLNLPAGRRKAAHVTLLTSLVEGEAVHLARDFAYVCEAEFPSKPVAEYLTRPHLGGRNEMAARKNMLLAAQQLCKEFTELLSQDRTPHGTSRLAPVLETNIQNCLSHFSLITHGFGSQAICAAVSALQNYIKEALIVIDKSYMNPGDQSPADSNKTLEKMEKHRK

T1: HA-ZEB1 (doxycycline-induced in MCF7-V-ZEB1 cells) (UniProt P37275)
T1 sequence: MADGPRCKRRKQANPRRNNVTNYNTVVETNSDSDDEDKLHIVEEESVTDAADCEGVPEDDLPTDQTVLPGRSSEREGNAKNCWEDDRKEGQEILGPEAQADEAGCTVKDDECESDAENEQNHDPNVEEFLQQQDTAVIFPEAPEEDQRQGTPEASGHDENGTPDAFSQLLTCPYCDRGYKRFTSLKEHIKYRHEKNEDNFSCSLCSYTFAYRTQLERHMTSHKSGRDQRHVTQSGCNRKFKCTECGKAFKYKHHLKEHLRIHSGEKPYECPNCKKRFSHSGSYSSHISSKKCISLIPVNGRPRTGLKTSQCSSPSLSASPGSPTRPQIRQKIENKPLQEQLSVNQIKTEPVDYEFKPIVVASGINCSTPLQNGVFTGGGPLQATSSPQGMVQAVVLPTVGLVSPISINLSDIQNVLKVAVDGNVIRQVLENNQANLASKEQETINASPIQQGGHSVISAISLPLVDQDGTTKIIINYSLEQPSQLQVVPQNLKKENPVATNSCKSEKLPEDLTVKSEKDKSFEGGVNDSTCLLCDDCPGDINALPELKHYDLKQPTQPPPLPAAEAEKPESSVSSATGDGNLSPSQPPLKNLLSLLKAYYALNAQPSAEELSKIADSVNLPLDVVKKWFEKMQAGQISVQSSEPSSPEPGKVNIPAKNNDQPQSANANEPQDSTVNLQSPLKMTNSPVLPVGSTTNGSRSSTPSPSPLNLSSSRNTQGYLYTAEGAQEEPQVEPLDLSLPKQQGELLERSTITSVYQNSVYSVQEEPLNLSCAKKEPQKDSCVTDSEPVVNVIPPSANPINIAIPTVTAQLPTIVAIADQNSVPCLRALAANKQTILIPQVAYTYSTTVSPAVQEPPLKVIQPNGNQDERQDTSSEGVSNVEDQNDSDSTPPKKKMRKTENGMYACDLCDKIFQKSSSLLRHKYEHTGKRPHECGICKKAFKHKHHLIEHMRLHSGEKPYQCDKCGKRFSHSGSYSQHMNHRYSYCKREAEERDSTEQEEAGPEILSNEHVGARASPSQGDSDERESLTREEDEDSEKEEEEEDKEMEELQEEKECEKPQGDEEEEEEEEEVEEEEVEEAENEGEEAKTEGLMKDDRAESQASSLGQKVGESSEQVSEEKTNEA


Target: T1, HA-ZEB1 (doxycycline-induced in MCF7-V-ZEB1 cells)
Assay: co-IP; co-IPs from whole-cell extracts (Supplementary Fig. 5b); cells and the precipitated protein not told in the text shown

| binding | Molecule |
| --- | --- |
| binds | AP2γ (from UniProt Q92754 1-450) |
| binds | FOXA1 (protein, UniProt P55317 1-472) MLGTVKMEGHETSDWNSYYADTQEAYSSVPVSNMNSGLGSMNSMNTYMTMNTMTTSGNMTPASFNMSYANPGLGAGLSPGAVAGMPGGSAGAMNSMTAAGVTAMGTALSPSGMGAMGAQQAASMNGLGPYAAAMNPCMSPMAYAPSNLGRSRAGGGGDAKTFKRSYPHAKPPYSYISLITMAIQQAPSKMLTLSEIYQWIMDLFPYYRQNQQRWQNSIRHSLSFNDCFVKVARSPDKPGKGSYWTLHPDSGNMFENGCYLRRQKRFKCEKQPGAGGGGGSGSGGSGAKGGPESRKDPSGASNPSADSPLHRGVHGKTGQLEGAPAPGPAASPQTLDHSGATATGGASELKTPASSTAPPISSGPGALASVPASHPAHGLAPHESQLHLKGDPHYSFNHPFSINNLMSSSEQQHKLDFKAYEQALQYSPYGSTLPASLPLGSASVTTRSPIEPSALEPAYYQGVYSRPVLNTS |
